From patent US11519014B2, “Specific substrate of an ALDH isoenzyme” (ADVANCED BIODESIGN, priority 2016, dated 2022)
For at least one compound, name, drawing or mass did not settle the structure.

Tests used:
Type in all cases: cell-based
ALDH1 [1] = test: ALDH1 activity by resorufin retinoate and fluorescein di-retinoate after Disulfiram (DSF) treatment (HL-60 cells); conditions: DSF 250 nM and 1000 nM, 1 hour, substrates 5 μM, 30 minutes, P<0.001, FIG. 6
ALDH3 [2] = test: ALDH3 activity by resorufin benzoate and fluorescein di-benzoate after Disulfiram (DSF) treatment (HL-60 cells); conditions: DSF 250 nM and 1000 nM, 1 hour, substrates 5 μM, 30 minutes, P<0.001, FIG. 6
ALDH1 [3] = test: ALDH1 activity by resorufin retinoate and fluorescein di-retinoate after retinoic acid treatment (HL-60 cells); conditions: retinoic acid 1 μM and 10 μM, 72 hours, substrates 5 μM, 30 minutes, FIG. 5
ALDH3 [4] = test: ALDH3 activity by resorufin benzoate and fluorescein di-benzoate after retinoic acid treatment (HL-60 cells); conditions: retinoic acid 1 μM and 10 μM, 72 hours, substrates 5 μM, 30 minutes, FIG. 5

SMILES	inhibition of ALDH1 activity (resorufin retinoate and fluorescein di-retinoate) (ALDH1 [1])	inhibition of ALDH3 activity (resorufin benzoate and fluorescein di-benzoate) (ALDH3 [2])	inhibition of ALDH1 activity (resorufin retinoate and fluorescein di-retinoate) (ALDH1 [3])	inhibition of ALDH3 activity (resorufin benzoate and fluorescein di-benzoate) (ALDH3 [4])
CCN(CC)C(=S)SSC(=S)N(CC)CC [DSF, disulfiram]	significant (P<0.001) inhibition	significant (P<0.001) inhibition	–	–
CC1=C(/C=C/C(C)=C/C=C/C(C)=C/C(=O)O)C(C)(C)CCC1 [retinoic acid]	–	–	significant (P<0.001) or (P<0.01) level of activity inhibition	significant (P<0.001) or (P<0.01) level of activity inhibition
